# Test results reported in PubChem BioAssay AID1458 (National Center for Advancing Translational Sciences (NCATS), 2008).
# The hits were mostly taken out for another list; the other results follow. Records with an inconclusive call do not appear. Calls of active or inactive are those of the source. Calls follow the shape of the dose curve; as a rule, active = well fitted activation curve with a large enough effect; inconclusive = small, poorly fitted or top-dose-only effect; inactive = no such curve, though single readings can be large or run the other way.
# Assay: qHTS Assay for Enhancers of SMN2 Splice Variant Expression; also: % of control where 0% means no effect; nearly all actives have a fitted effect of over 55% in size
# Details: HEK293 SMN2-luciferase splicing reporter, luminescence, 30-36 h
# Text: NIH Chemical Genomics Center [NCGC] NIH Molecular Libraries Probe Production centers Network [MLPCN] MLPCN Grant: R03 MH084179-01 Assay Submitter (PI): Elliot Androphy NCGC Assay Overview: Spinal muscular atrophy (SMA) is caused by insufficient levels of the survival motor neuron protein SMN. The SMN locus on chromosome 5q13 contains two inverted copies of SMN called SMN1 and SMN2 which are 99% identical at the amino acid level. SMN1 is a fully functional protein and SMN2 skips exon 7 90% of the time. Skipping of exon 7 produces non-functional protein product. 10% of the SMN2 protein includes exon 7 and is fully functional. In the SMA disease state, mutations in the SMN1 locus are the cause of the disease state. Because only 10% of SMN2 is of the fully functional form, it is not sufficient to overcome the deficiency produced by the loss of the SMN1 product. A therapy that either increase the amount of SMN2 product made or to increase the inclusion of exon 7 has been proposed for the treatment of SMA. We have designed an assay to identify small molecules that can increase the amount of functional SMN2 product by appending a luciferase reporter gene after the native SMN2 gene, such that inclusion of exon 7 in the expressed product places the luciferase sequence in frame, thus generating functional luciferase enzyme.
# NCGC Assay Protocol Summary: This screen utilizes a luciferase reporter gene assay, combining the promoter and splicing based cassettes in tandem with the major portion of the native SMN2 cDNA, and then transfected into HEK293 cells. Compounds that increase luciferase signal presumably enhance expression of the functional SMN2 splice variant. Passaging media contained DMEM w/ glutamax (+phenol red) 10% FCS, 1x pen/strep, 200 ug/ml hygro, 1x sodium pyruvate. Assay media contained DMEM w/ glutamax (-phenol red) 10% FCS, 1x pen strep, 1x pyruvate Sequence, Parameter, Value, Description (1) Cells, […], 2000 cells/well, 1536 TC treated White solid bottom plate (2) Time, 10-12 hours, 37C 5% CO2 (3) Compound, 23 nl, MLSMR Library (4) Control Compound, 23 nL, Sodium butyrate st 4.5mM (final) conc (5) Time, 30-36 hours, 37C 5% CO2 (6) Reagent, 3 ul, One Glo (TM) from Promega (7) Time, 5-15 minutes, Room temp (8) Detector, Viewlux: luminescent read, 60 second integration, high speed 2x binning Keywords: Spinal muscular atrophy, SMA, SMN2, high throughput screening, MLSMR, MLPCN, NIH Roadmap, qHTS and NCGC
smiles,measurement,setting,value
CN1C2CCC1CC(OC(=O)C(O)c1ccccc1)C2 (centres undefined),"activity change, positive = activation",at 46.1 µM (top of the series),inactive: 0.401%
COC(=O)c1ccc(NC(C)=O)cc1O,"activity change, positive = activation",at 46.1 µM (top of the series),inactive: -30.7%
CN1[C@@H]2CC[C@H]1CC(OC(=O)[C@@H](O)c1ccccc1)C2 (some centres undefined),"activity change, positive = activation",at 9.22 µM (top of the series),inactive: -0.365%
same,"activity change, positive = activation",at 20.6 µM (top of the series),inactive: -2.2%
